{"source": "patent US7704508B2", "about": "“Babesia subtilisin” (New York Blood Center, priority 2007, dated 2010)", "test_system": "B. divergens", "assay": "Effect of protease inhibitors on B. divergens growth in culture (parasitemia by YOYO-1 flow cytometry, T72)", "type": "cell-based", "conditions": "50 and 100 μM, compared to control", "protocol": "Parasitemia for B. divergens was assessed in human RBCs using a modification of the methods of Barkan et al. (Int. J. Parasitol. 30:649-53, 2000) and Jimenez-Diaz et al. (Cytometry A 67:27-36, 2005), both of which are incorporated by reference herein for all they contain regarding assessment of parasitemia. DNA content was measured after staining with YOYO-1 (a high affinity cell-impermeant dye that increases green fluorescence by 1000-fold when bound to dsDNA) observed infected erythrocytes compared with non-infected human erythrocytes for B. divergens.\nTo assess the effect of various protease inhibitors, parasitemia was assessed in 180 parasite samples taken at different time points (0 and after 10, 24, 48 and 72 h). In parallel with the evaluation of the parasitemia by FACS (fluorescence activated cell sorting), 60 random parasite samples were analyzed by light microscopy using Giemsa-stained thin blood smears, with 500-1000 RBCs being counted for each smear. […] Integration of the numbers of events represented in the right peak provides a direct estimate of the parasitemia, where one infected cell is one event.\nProtease inhibitors were tested for their ability to inhibit the invasion and growth of B. divergens in vitro.\nThe effects of EGTA, a chelating agent capable of binding metal ions including Ca^2+, on the invasion and growth of B. divergens was tested. […]", "note": "Some entries share one result that the patent states for a list of compounds. Some ranges recur; such a range may be that of the whole group of compounds. Non-standard residues stand in square brackets, D forms with d. Residues, ends and D or L forms follow the SMILES beside them. *: point of attachment. Sta = CC(C)C[C@H](N)[C@@H](O)CC(=O)O; Isovaleryl = CC(C)CC(=O)*", "data": [{"smiles": "CC(C)CC(=O)N[C@H](C(=O)N[C@H](C(=O)N[C@@H](CC(C)C)[C@@H](O)CC(=O)N[C@@H](C)C(=O)N[C@@H](CC(C)C)[C@@H](O)CC(=O)O)C(C)C)C(C)C", "note": "[Pepstatin, pepstatin] (Isovaleryl-VV[Sta]A[Sta]-OH)", "values": [{"measurement": "inhibition of growth / decrease of parasitemia after 72 h", "value": "9-47%"}]}]}
